Experimental data: patent publication US20100152434A1, “Protein Kinase-binding Nucleosides and Associated Methods” (priority 2007, published 2010)
Like-named read-outs stand apart in the source and are kept apart here.

Compound: CNC(=O)NC[C@H]1O[C@@H](n2cnc3c(NC(=O)Nc4ccccc4)ncnc32)[C@H](O[Si](C)(C)C(C)(C)C)[C@@H]1CC(=O)N(C)OC [Compound 13, 2′-O-(tert-Butyldimethylsilyl)-3′,5′-dideoxy-3′-[(N-methoxy-N-methylcarboxamido)methyl]-5′-[(N-methylcarbamoyl)amino]-N^6-(N-phenylcarbamoyl)adenosine]
- Mean Optical Densities (M14; Log10 Concentration −4.0): 0.647
- Mean Optical Densities (M14; Log10 Concentration −5.0): 1.026
- Mean Optical Densities (M14; Log10 Concentration −6.0): 1.352
- Mean Optical Densities (M14; Log10 Concentration −7.0): 1.418
- Mean Optical Densities (M14; Log10 Concentration −8.0): 1.422
- Mean Optical Densities (OVCAR-5; Log10 Concentration −4.0): 0.688
- Mean Optical Densities (OVCAR-5; Log10 Concentration −5.0): 0.921
- Mean Optical Densities (OVCAR-5; Log10 Concentration −6.0): 1.053
- Mean Optical Densities (OVCAR-5; Log10 Concentration −7.0): 1.092
- Mean Optical Densities (OVCAR-5; Log10 Concentration −8.0): 1.098
- Mean Optical Densities (COLO 205; Log10 Concentration −4.0): 0.251
- Mean Optical Densities (COLO 205; Log10 Concentration −5.0): 0.685
- Mean Optical Densities (COLO 205; Log10 Concentration −6.0): 0.968
- Mean Optical Densities (COLO 205; Log10 Concentration −7.0): 0.992
- Mean Optical Densities (COLO 205; Log10 Concentration −8.0): 1.027
- Mean Optical Densities (LOX IMVI; Log10 Concentration −4.0): 1.146
- Mean Optical Densities (LOX IMVI; Log10 Concentration −5.0): 1.324
- Mean Optical Densities (LOX IMVI; Log10 Concentration −6.0): 2.415
- Mean Optical Densities (LOX IMVI; Log10 Concentration −7.0): 2.473
- Mean Optical Densities (LOX IMVI; Log10 Concentration −8.0): 2.486
- Mean Optical Densities (EKVX; Log10 Concentration −4.0): 1.627
- Mean Optical Densities (EKVX; Log10 Concentration −5.0): 1.993
- Mean Optical Densities (EKVX; Log10 Concentration −6.0): 2.536
- Mean Optical Densities (EKVX; Log10 Concentration −7.0): 2.536
- Mean Optical Densities (EKVX; Log10 Concentration −8.0): 2.516
- Mean Optical Densities (NCI-H322M; Log10 Concentration −4.0): 1.571
- Mean Optical Densities (NCI-H322M; Log10 Concentration −5.0): 1.789
- Mean Optical Densities (NCI-H322M; Log10 Concentration −6.0): 1.933
- Mean Optical Densities (NCI-H322M; Log10 Concentration −7.0): 1.886
- Mean Optical Densities (NCI-H322M; Log10 Concentration −8.0): 1.869
- Mean Optical Densities (BT-549; Log10 Concentration −4.0): 1.197
- Mean Optical Densities (BT-549; Log10 Concentration −5.0): 1.671
- Mean Optical Densities (BT-549; Log10 Concentration −6.0): 1.946
- Mean Optical Densities (BT-549; Log10 Concentration −7.0): 1.965
- Mean Optical Densities (BT-549; Log10 Concentration −8.0): 1.940
- Mean Optical Densities (CAKI-1; Log10 Concentration −4.0): 0.864
- Mean Optical Densities (CAKI-1; Log10 Concentration −5.0): 0.897
- Mean Optical Densities (CAKI-1; Log10 Concentration −6.0): 0.964
- Mean Optical Densities (CAKI-1; Log10 Concentration −7.0): 0.949
- Mean Optical Densities (CAKI-1; Log10 Concentration −8.0): 0.993
- Mean Optical Densities (NCI-H23; Log10 Concentration −4.0): 1.077
- Mean Optical Densities (NCI-H23; Log10 Concentration −5.0): 1.382
- Mean Optical Densities (NCI-H23; Log10 Concentration −6.0): 1.693
- Mean Optical Densities (NCI-H23; Log10 Concentration −7.0): 1.736
- Mean Optical Densities (NCI-H23; Log10 Concentration −8.0): 1.771
- Mean Optical Densities (U251; Log10 Concentration −4.0): 0.492
- Mean Optical Densities (U251; Log10 Concentration −5.0): 0.619
- Mean Optical Densities (U251; Log10 Concentration −6.0): 1.177
- Mean Optical Densities (U251; Log10 Concentration −7.0): 1.293
- Mean Optical Densities (U251; Log10 Concentration −8.0): 1.255
- Mean Optical Densities (T-47D; Log10 Concentration −4.0): 0.579
- Mean Optical Densities (T-47D; Log10 Concentration −5.0): 0.805
- Mean Optical Densities (T-47D; Log10 Concentration −6.0): 0.972
- Mean Optical Densities (T-47D; Log10 Concentration −7.0): 1.002
- Mean Optical Densities (T-47D; Log10 Concentration −8.0): 1.012
- Mean Optical Densities (HL-60(TB); Log10 Concentration −4.0): 0.292
- Mean Optical Densities (HL-60(TB); Log10 Concentration −5.0): 0.365
- Mean Optical Densities (HL-60(TB); Log10 Concentration −6.0): 1.482
- Mean Optical Densities (HL-60(TB); Log10 Concentration −7.0): 1.503
- Mean Optical Densities (HL-60(TB); Log10 Concentration −8.0): 1.580
- Mean Optical Densities (OVCAR-8; Log10 Concentration −4.0): 0.575
- Mean Optical Densities (OVCAR-8; Log10 Concentration −5.0): 0.820
- Mean Optical Densities (OVCAR-8; Log10 Concentration −6.0): 1.338
- Mean Optical Densities (OVCAR-8; Log10 Concentration −7.0): 1.371
- Mean Optical Densities (OVCAR-8; Log10 Concentration −8.0): 1.382
- Mean Optical Densities (TK-10; Log10 Concentration −4.0): 0.667
- Mean Optical Densities (TK-10; Log10 Concentration −5.0): 0.968
- Mean Optical Densities (TK-10; Log10 Concentration −6.0): 1.209
- Mean Optical Densities (TK-10; Log10 Concentration −7.0): 1.223
- Mean Optical Densities (TK-10; Log10 Concentration −8.0): 1.177
- Mean Optical Densities (IGROV1; Log10 Concentration −4.0): 0.389
- Mean Optical Densities (IGROV1; Log10 Concentration −5.0): 0.604
- Mean Optical Densities (IGROV1; Log10 Concentration −6.0): 1.031
- Mean Optical Densities (IGROV1; Log10 Concentration −7.0): 1.081
- Mean Optical Densities (IGROV1; Log10 Concentration −8.0): 1.077
- Mean Optical Densities (SF-295; Log10 Concentration −4.0): 1.105
- Mean Optical Densities (SF-295; Log10 Concentration −5.0): 1.632
- Mean Optical Densities (SF-295; Log10 Concentration −6.0): 2.575
- Mean Optical Densities (SF-295; Log10 Concentration −7.0): 2.476
- Mean Optical Densities (SF-295; Log10 Concentration −8.0): 2.480
- Mean Optical Densities (SK-OV-3; Log10 Concentration −4.0): 0.648
- Mean Optical Densities (SK-OV-3; Log10 Concentration −5.0): 0.905
- Mean Optical Densities (SK-OV-3; Log10 Concentration −6.0): 0.984
- Mean Optical Densities (SK-OV-3; Log10 Concentration −7.0): 0.995
- Mean Optical Densities (SK-OV-3; Log10 Concentration −8.0): 0.989
